Assay results taken from paper PMC11731006, “Structural insight into Okazaki fragment maturation mediated by PCNA-bound FEN1 and RNaseH2”.
Results are given in words; binding and its absence hold for the method and conditions named. Some results given as binding are weak or reduced against the parent protein; the word gives no strength.

Target: T1, RNaseH2C, subunit of RNaseH2 (human (endogenous in HEK293)) (UniProt Q8TDP1)
T1 sequence: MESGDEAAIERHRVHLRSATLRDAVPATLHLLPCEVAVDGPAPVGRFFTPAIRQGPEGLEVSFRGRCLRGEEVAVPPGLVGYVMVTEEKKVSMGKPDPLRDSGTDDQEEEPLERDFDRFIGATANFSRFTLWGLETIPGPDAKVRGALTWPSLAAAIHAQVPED
Experiment: cryo-EM structure; endogenous PCNA-FEN1-RNaseH2 complex with bound DNA from glycerol gradient Fractions 9-12; four states (A-D), 5.2-6.6 Å, local map of RNaseH2 4.26 Å; RNaseH2 modelled from AlphaFold2 prediction fitted to the map

- binding: binds
B1: RNaseH2B, subunit of RNaseH2 (protein, UniProt Q5TBB1 1-312)
chain: MAAGVDCGDGVGARQHVFLVSEYLKDASKKMKNGLMFVKLVNPCSGEGAIYLFNMCLQQLFEVKVFKEKHHSWFINQSVQSGGLLHFATPVDPLFLLLHYLIKADKEGKFQPLDQVVVDNVFPNCILLLKLPGLEKLLHHVTEEKGNPEIDNKKYYKYSKEKTLKWLEKKVNQTVAALKTNNVNVSSRVQSTAFFSGDQASTDKEEDYIRYAHGLISDYIPKELSDDLSKYLKLPEPSASLPNPPSKKIKLSDEPVEAKEDYTKFNTKDLKTEKKNSKMTAAQKALAKVDKSGMKSIDTFFGVKNKKKIGKV
